Some of the results follow.

Protein sequences, listed by entry. Tags and fused reporters are not part of them. Lines headed by an entry give the natural chain unless they say otherwise; changes in a name come on top.
UniProt P0DPH7, whole entry, looked up: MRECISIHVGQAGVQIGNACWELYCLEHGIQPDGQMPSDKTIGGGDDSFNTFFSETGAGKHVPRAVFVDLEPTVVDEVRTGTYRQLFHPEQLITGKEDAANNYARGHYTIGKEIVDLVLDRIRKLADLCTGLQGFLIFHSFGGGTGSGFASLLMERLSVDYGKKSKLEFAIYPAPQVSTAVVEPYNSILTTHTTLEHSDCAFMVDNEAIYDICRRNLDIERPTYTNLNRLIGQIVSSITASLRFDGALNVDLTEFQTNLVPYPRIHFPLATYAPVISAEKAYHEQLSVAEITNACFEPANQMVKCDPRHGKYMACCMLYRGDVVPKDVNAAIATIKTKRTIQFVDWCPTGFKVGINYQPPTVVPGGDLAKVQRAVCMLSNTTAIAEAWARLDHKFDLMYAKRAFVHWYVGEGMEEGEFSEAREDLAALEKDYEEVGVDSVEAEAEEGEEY
UniProt A6NHL2: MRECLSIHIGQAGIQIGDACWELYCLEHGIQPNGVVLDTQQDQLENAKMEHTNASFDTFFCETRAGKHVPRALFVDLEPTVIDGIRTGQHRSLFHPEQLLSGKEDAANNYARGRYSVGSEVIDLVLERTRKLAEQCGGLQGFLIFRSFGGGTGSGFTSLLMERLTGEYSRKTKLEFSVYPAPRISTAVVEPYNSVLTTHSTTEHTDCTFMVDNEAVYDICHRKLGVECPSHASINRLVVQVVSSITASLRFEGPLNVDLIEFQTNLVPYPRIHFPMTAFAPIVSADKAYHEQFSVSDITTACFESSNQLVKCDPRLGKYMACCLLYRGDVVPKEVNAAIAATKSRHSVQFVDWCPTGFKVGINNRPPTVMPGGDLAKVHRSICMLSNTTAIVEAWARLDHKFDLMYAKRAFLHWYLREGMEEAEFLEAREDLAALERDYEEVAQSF
UniProt P60604: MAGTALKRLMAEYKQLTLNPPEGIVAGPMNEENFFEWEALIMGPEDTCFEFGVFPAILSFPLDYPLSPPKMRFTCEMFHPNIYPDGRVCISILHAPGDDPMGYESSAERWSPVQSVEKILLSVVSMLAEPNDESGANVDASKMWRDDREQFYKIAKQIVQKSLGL
UniProt Q8IWV7: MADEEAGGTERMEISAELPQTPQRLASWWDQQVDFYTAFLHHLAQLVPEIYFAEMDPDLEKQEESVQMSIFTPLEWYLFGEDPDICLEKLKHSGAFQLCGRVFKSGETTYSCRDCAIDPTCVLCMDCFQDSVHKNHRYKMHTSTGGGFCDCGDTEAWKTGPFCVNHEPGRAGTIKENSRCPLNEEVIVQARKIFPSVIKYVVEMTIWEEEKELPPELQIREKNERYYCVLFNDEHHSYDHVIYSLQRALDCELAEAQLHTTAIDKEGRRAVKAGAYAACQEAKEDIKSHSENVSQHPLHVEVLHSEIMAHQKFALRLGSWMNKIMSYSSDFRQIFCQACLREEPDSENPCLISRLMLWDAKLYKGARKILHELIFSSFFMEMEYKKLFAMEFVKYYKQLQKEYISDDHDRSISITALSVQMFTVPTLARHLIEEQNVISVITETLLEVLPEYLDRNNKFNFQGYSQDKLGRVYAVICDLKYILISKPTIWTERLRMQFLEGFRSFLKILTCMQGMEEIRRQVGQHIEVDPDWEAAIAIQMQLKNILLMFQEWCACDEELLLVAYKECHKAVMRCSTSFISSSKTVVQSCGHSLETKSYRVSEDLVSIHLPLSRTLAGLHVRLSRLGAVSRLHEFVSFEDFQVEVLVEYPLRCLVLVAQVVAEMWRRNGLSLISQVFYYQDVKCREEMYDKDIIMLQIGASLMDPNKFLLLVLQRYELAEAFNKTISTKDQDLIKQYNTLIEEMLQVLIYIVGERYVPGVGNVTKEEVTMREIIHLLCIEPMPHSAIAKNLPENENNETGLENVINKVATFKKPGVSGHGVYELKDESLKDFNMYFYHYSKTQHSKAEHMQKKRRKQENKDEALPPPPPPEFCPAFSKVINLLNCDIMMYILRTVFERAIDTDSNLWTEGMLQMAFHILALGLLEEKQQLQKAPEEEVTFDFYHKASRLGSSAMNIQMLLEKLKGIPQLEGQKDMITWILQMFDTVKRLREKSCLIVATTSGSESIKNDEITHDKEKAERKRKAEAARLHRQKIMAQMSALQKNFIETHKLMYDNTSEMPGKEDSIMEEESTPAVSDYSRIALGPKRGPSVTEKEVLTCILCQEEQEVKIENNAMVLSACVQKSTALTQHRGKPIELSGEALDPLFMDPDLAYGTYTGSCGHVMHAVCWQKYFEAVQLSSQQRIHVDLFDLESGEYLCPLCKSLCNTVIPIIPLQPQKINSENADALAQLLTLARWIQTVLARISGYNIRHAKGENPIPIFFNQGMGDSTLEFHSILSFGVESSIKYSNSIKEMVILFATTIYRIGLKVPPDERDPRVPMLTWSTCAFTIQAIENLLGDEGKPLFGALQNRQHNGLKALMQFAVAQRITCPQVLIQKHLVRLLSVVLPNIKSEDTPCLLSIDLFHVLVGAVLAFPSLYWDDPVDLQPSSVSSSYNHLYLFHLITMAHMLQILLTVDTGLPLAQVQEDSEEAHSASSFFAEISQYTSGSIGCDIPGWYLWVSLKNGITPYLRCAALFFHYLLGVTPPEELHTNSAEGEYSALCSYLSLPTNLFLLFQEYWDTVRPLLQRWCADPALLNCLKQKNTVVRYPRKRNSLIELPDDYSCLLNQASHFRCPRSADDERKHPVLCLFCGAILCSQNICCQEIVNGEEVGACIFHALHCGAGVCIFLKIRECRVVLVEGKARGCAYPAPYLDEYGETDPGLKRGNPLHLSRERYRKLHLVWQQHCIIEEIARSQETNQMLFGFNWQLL
UniProt Q9UBT2: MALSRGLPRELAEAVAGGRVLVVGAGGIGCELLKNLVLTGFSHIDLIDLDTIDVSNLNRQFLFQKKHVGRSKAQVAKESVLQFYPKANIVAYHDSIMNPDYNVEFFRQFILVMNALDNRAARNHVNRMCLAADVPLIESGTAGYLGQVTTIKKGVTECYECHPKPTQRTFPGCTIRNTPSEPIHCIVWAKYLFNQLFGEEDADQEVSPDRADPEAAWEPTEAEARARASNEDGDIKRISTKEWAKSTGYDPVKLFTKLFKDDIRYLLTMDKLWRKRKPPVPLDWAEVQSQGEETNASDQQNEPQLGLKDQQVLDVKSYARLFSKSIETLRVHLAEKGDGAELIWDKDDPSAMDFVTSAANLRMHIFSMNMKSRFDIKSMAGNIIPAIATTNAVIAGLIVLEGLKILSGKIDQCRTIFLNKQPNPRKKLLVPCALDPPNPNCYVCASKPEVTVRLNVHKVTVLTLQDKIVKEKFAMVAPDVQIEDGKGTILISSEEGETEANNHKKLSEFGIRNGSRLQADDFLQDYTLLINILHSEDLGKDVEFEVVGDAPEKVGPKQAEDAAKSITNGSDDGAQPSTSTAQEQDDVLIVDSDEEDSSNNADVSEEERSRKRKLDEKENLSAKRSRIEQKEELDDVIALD
UniProt Q8NBS9: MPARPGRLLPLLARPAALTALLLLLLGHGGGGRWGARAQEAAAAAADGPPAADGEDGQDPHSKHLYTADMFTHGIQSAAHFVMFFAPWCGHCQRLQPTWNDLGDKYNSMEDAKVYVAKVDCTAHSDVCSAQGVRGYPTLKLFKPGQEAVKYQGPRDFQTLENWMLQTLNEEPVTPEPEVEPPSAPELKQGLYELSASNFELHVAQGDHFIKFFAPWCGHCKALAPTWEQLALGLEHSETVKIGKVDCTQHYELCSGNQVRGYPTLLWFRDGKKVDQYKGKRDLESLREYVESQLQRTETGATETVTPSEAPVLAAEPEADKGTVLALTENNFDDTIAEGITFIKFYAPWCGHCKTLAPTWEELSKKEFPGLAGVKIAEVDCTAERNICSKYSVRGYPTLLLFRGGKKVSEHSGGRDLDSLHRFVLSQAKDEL
UniProt Q712K3: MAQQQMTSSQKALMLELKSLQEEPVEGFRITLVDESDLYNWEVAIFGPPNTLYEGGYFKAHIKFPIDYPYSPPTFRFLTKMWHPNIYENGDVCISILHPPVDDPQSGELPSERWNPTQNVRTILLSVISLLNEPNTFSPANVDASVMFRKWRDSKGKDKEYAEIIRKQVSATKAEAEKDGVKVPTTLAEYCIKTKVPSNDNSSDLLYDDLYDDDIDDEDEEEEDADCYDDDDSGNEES
UniProt Q96CW5, whole entry, looked up: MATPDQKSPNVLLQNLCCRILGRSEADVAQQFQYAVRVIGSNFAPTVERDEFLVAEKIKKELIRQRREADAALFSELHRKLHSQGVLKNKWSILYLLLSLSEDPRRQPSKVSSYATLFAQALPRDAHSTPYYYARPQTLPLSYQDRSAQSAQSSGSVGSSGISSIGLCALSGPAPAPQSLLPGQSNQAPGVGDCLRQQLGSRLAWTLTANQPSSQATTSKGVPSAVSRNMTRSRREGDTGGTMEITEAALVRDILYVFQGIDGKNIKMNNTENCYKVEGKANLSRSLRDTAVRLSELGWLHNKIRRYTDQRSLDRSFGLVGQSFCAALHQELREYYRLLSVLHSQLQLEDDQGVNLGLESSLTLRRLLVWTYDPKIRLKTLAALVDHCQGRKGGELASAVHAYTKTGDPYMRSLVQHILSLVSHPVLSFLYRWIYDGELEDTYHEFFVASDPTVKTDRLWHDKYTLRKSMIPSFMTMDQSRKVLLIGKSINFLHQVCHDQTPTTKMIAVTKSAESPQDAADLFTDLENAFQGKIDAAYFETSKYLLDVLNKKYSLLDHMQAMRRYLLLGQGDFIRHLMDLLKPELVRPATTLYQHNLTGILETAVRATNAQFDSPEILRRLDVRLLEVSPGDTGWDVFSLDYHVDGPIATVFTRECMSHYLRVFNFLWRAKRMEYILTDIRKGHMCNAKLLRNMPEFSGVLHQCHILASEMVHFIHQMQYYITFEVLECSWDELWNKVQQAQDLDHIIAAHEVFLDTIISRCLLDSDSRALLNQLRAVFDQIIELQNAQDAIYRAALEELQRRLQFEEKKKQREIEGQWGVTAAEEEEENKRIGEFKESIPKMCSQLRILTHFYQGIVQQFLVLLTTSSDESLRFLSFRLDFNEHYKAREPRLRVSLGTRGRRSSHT
UniProt Q9BQE3, whole entry, looked up: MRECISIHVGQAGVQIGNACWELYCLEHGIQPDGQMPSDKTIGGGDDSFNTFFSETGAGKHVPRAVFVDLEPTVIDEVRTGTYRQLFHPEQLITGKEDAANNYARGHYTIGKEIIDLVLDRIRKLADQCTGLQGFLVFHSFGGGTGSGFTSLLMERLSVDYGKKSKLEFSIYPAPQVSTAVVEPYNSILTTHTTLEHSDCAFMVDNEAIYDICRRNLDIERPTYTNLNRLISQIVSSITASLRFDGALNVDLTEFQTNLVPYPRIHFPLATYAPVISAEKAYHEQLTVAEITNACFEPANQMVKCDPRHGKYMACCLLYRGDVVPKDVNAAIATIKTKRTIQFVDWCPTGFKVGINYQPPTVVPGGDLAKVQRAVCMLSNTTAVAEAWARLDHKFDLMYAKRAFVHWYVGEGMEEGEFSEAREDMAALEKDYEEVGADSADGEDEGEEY
UniProt Q9NZI7: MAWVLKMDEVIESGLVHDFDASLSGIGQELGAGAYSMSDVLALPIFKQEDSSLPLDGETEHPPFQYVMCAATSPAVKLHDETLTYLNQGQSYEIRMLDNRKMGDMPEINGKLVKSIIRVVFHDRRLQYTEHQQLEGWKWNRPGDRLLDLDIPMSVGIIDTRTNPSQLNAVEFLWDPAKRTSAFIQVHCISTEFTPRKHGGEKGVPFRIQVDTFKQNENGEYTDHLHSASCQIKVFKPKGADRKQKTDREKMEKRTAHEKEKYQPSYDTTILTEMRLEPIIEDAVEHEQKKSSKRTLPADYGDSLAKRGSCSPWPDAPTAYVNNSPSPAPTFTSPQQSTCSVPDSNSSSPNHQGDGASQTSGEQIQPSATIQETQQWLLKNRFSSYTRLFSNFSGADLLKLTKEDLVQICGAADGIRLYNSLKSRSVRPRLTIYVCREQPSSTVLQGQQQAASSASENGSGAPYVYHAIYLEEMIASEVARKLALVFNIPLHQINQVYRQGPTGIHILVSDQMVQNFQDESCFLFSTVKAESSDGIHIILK
UniProt Q9UJT1: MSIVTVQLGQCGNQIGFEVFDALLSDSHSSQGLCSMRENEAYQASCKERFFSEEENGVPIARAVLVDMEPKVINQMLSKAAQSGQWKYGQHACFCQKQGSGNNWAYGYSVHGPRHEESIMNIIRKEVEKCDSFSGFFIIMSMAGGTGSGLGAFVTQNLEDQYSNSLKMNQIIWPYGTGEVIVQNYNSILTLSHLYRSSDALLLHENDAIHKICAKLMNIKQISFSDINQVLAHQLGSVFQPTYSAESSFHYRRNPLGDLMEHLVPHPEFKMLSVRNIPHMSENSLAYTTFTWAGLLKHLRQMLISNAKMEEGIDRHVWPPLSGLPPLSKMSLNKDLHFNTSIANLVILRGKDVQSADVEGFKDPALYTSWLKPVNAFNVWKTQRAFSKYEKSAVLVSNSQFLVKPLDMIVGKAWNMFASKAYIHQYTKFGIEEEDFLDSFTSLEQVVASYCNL

Compound in one test: CNC(=O)C1=CC=CC=C1NC2=NC(=NC=C2Cl)NC3=C(C=C(C=C3)N4CCOCC4)OC
Briefly: log2 fold change, soluble protein after heating vs DMSO (PISA); higher = thermal stabilisation; K562 lysate, 10 uM; active = over 0.2 and 3.5 SD of the protein, either way, in both replicates (recomputed). The method in brief: (§1)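 Log-two fold change in thermal stability relative to solvent controls is reported from duplicates. For each sample, crude K562 extract from dounce-homogenised pellets in PBS pH 7.4 with 1 mM MgCl2, at 1 mg/mL protein, was treated with 10 μM compound for 30 min. Aliquots heated for 3 min across 48°C-58°C were pooled, brought to 0.5% NP-40 at 4°C and cleared at 21,000xg for 90 min. The supernatant was quantified by TMTpro 16plex LC-MS/MS with channel sums equalised.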
Regarding UCK1 isoform 4 (UniProt Q9HA47), the log2 fold change is inactive: 0.041.

In the case of TUBA3C (UniProt P0DPH7), the log2 fold change is inactive: 0.01.

With UBE2Z (UniProt Q9H832), the log2 fold change is inactive: 0.039.

Take UBE2F isoform 2 (UniProt Q969M7): the log2 fold change is inactive: -0.009.

On to TUBAL3 (UniProt A6NHL2), for which the log2 fold change was inactive: -0.179.

UBXN4 (UniProt Q92575): the log2 fold change is inactive: 0.029.

For UBE4A isoform 2 (UniProt Q14139), the log2 fold change was inactive: 0.029.

For the target UBAP1 (UniProt Q9NZ09), the log2 fold change is inactive: 0.021.

With UBE2G2 (UniProt P60604), the log2 fold change is inactive: -0.013.

As to UBR1 (UniProt Q8IWV7), the log2 fold change was inactive: 0.009.

Regarding TXLNG (UniProt Q9NUQ3), the log2 fold change was inactive: -0.009.

With UBE3D (UniProt Q7Z6J8), the log2 fold change is inactive: -0.013.

For the target TUT4 (UniProt Q5TAX3), the log2 fold change is inactive: -0.001.

For the target TWF2 (UniProt Q6IBS0), the log2 fold change is inactive: -0.016.

As for U2SURP (UniProt O15042), the log2 fold change is inactive: 0.014.

Regarding UBA2 (UniProt Q9UBT2), the log2 fold change is inactive: -0.019.

As for TXNDC5 (UniProt Q8NBS9), the log2 fold change was inactive: -0.003.

Turning to UBE2R2 (UniProt Q712K3), the log2 fold change is inactive: -0.011.

With UBE2L3 isoform 3 (UniProt P68036), the log2 fold change was inactive: -0.001.

On to UBE3A (UniProt Q05086), for which the log2 fold change was inactive: 0.

Turning to UBAP2L isoform 5 (UniProt Q14157), the log2 fold change is inactive: 0.007.

For TUBGCP3 (UniProt Q96CW5), the log2 fold change is inactive: 0.026.

For the target TUBA1B (UniProt P68363), the log2 fold change was inactive: 0.019.

Turning to TUBA1C (UniProt Q9BQE3), the log2 fold change is inactive: 0.011.

Regarding UBE2M (UniProt P61081), the log2 fold change was inactive: 0.002.

TYMS (UniProt P04818): the log2 fold change is inactive: 0.017.

UBE2D1 (UniProt P51668): the log2 fold change was inactive: 0.06.

Turning to UBQLN4 (UniProt Q9NRR5), the log2 fold change is inactive: -0.002.

For TWSG1 (UniProt Q9GZX9), the log2 fold change was inactive: 0.008.

Take UBA1 (UniProt P22314): the log2 fold change was inactive: 0.007.

Turning to UBR5 (UniProt O95071), the log2 fold change was inactive: 0.002.

In the case of UAP1L1 (UniProt Q3KQV9), the log2 fold change is inactive: 0.008.

UBP1 (UniProt Q9NZI7): the log2 fold change was inactive: 0.058.

As for UBE2NL (UniProt Q5JXB2), the log2 fold change is inactive: -0.033.

TUBD1 (UniProt Q9UJT1): the log2 fold change is inactive: 0.072.

Compound in the next test: CNC(=O)c1ccc(Nc2ncc(C(F)(F)F)c(NCc3nccnc3N(C)S(C)(=O)=O)n2)cc1 [defactinib]
The description is as above. The essentials:
as §1
Consider UCK1 isoform 4 (UniProt Q9HA47), for which the log2 fold change was inactive: -0.006.

TUBA3C (UniProt P0DPH7): the log2 fold change was inactive: -0.013.

In the case of UBE2Z (UniProt Q9H832), the log2 fold change was inactive: -0.01.

Regarding UBE2F isoform 2 (UniProt Q969M7), the log2 fold change was inactive: 0.101.

Regarding TUBAL3 (UniProt A6NHL2), the log2 fold change was inactive: -0.093.

As to UBXN4 (UniProt Q92575), the log2 fold change is inactive: -0.038.

As for UBE4A isoform 2 (UniProt Q14139), the log2 fold change was inactive: 0.011.

Take UBAP1 (UniProt Q9NZ09): the log2 fold change is inactive: -0.074.

UBE2G2 (UniProt P60604): the log2 fold change was inactive: 0.069.

Take UBR1 (UniProt Q8IWV7): the log2 fold change is inactive: 0.001.

For TXLNG (UniProt Q9NUQ3), the log2 fold change is inactive: 0.001.

On to UBE3D (UniProt Q7Z6J8), for which the log2 fold change was inactive: -0.008.

Turning to TUT4 (UniProt Q5TAX3), the log2 fold change is inactive: 0.002.

In the case of TWF2 (UniProt Q6IBS0), the log2 fold change is inactive: 0.015.

As to U2SURP (UniProt O15042), the log2 fold change is inactive: 0.008.

Regarding UBA2 (UniProt Q9UBT2), the log2 fold change was inactive: -0.019.

For the target TXNDC5 (UniProt Q8NBS9), the log2 fold change is inactive: -0.035.

With UBE2R2 (UniProt Q712K3), the log2 fold change is inactive: -0.001.

On to UBE2L3 isoform 3 (UniProt P68036), for which the log2 fold change was inactive: -0.048.

With UBE3A (UniProt Q05086), the log2 fold change is inactive: -0.007.

As to UBAP2L isoform 5 (UniProt Q14157), the log2 fold change is inactive: 0.016.

Turning to TUBGCP3 (UniProt Q96CW5), the log2 fold change was inactive: 0.022.

In the case of TUBA1B (UniProt P68363), the log2 fold change was inactive: -0.03.

On to TUBA1C (UniProt Q9BQE3), for which the log2 fold change is inactive: 0.009.

Take UBE2M (UniProt P61081): the log2 fold change is inactive: -0.012.

For the target TYMS (UniProt P04818), the log2 fold change is inactive: 0.002.

Turning to UBE2D1 (UniProt P51668), the log2 fold change was inactive: 0.028.

For the target UBQLN4 (UniProt Q9NRR5), the log2 fold change is inactive: 0.042.

For the target TWSG1 (UniProt Q9GZX9), the log2 fold change is inactive: 0.008.

Take UBA1 (UniProt P22314): the log2 fold change is inactive: -0.011.

Regarding UBR5 (UniProt O95071), the log2 fold change is inactive: 0.016.

Turning to UAP1L1 (UniProt Q3KQV9), the log2 fold change is inactive: -0.156.

Consider UBP1 (UniProt Q9NZI7), for which the log2 fold change was inactive: 0.077.

Turning to UBE2NL (UniProt Q5JXB2), the log2 fold change is inactive: 0.029.

As for TUBD1 (UniProt Q9UJT1), the log2 fold change was inactive: -0.038.

(Values after the supplement of paper PMC10849652.)
